In PubChem BioAssay AID1487 (National Center for Advancing Translational Sciences (NCATS), 2009):
Some of the results follow. Further columns of the screen follow, without active or inactive calls. Most of these compounds were active or inconclusive in the main read-out, so they are no random draw. The note in brackets gives the kind of curve behind each potency; many fits are weak.

Test: qHTS Assay for Modulators of Lamin A Splicing
Settings: HeLa LMNA splicing GFP/RFP minigene ratio, 48 h
Method in brief: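 S3 HeLa cells stably expressing lamin A-EGFP splicing minigene plus DsRed2, 600 cells/well, 48 h compound exposure at 37C. Laser-scanning cytometry; analysed as GFP (500-530 nm)/RFP (575-640 nm) total intensity ratio; 0.5% DMSO vehicle.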

[1] = measured here: GFP splicing reporter channel
[2] = measured here: RFP viability control channel

| SMILES | AC50 [1] | AC50 [2] |
| --- | --- | --- |
| CCn1c(CN2CCOCC2)nc2cc(NC(=O)c3cc(OC)c(OC)c(OC)c3)ccc21 | 0.1 µM [falling, full curve] | 0.00316 µM [falling, full curve, poor fit] |
| CC(C)C(=O)N=C1SC2CS(=O)(=O)CC2N1Cc1ccccc1 (stereo not given) | 35.5 µM [rising, single point] |  |
| NCCCC(O)(P(=O)(O)O)P(=O)(O)O | 35.5 µM [falling, single point] | 3.55 µM [rising, full curve, poor fit] |
| COc1cccc(S(=O)(=O)Nc2cccc(C(=O)N3CCCCCC3)c2)c1 | 14.1 µM [rising, partial curve, poor fit] | 14.1 µM [rising, partial curve] |
| O=c1c2ccccc2nc(-c2cccc(Cl)c2)n1O |  | 31.6 µM [rising, single point] |
| COc1ccc(C(=O)CCN2CCc3cc(OC)c(OC)cc3C2)cc1 |  | 6.31 µM [falling, full curve] |
| CCC(c1nnnn1Cc1ccco1)N(CCc1ccccc1)Cc1cc2ccc(OC)cc2[nH]c1=O (stereo not given) | 14.1 µM [rising, single point] | 14.1 µM [rising, single point] |
| O=S(=O)(NCc1ccc(F)cc1)c1cccc(S(=O)(=O)N2CCOCC2)c1 |  | 1.41 µM [falling, full curve, poor fit] |
| CCOc1ccc(NC(=O)c2ccc(F)c(S(=O)(=O)NCc3ccc4c(c3)OCO4)c2)cc1 | 22.4 µM [falling, partial curve, poor fit] |  |
| Cc1nc(-c2cccc(NS(=O)(=O)c3ccc4ccccc4c3)c2)cs1 | 35.5 µM [rising, single point] | 31.6 µM [rising, single point] |
| COc1ccc(-n2c(SCc3ccccc3F)nc3c([nH]c4ccccc43)c2=O)cc1 | 22.4 µM [falling, partial curve, poor fit] | 35.5 µM [falling, single point] |
| Nc1ccc(S(=O)(=O)Nc2cnc3ccccc3n2)cc1 |  | 0.0562 µM [rising, full curve, poor fit] |
| Nc1c(C(=O)Nc2ccc(Br)cc2)sc2nc(-c3ccco3)ccc12 | 7.08 µM [rising, partial curve] | 12.6 µM [rising, partial curve] |
| CCOC(=O)CNC(=O)c1sc(NC(=O)c2ccccc2)nc1C | 15.8 µM [rising, single point] | 20 µM [rising, single point] |
| CCn1cc(C2=NOC(C(=O)Nc3ccc4c(c3)OCO4)C2)c(C)n1 (stereo not given) | 11.2 µM [rising, single point] | 14.1 µM [rising, partial curve] |
| O=C(CSc1nnc(SCc2ccc(Cl)cc2)s1)N1CCOCC1 |  | 3.55 µM [falling, single point] |
| COc1cccc(/C=N/NC(=O)CSCC(=O)Nc2ccccc2)c1O |  | 28.2 µM [rising, single point] |
| COc1ccc(CCNC(=O)CS(=O)Cc2nc(-c3ccc(C)cc3)oc2C)c(OC)c1 (stereo not given) | 0.00447 µM [rising, full curve, poor fit] |  |
| COc1ccc(C)cc1NC(=O)C(Sc1ccccc1)c1ccccc1 (stereo not given) | 11.2 µM [rising, partial curve] | 17.8 µM [rising, partial curve] |

| SMILES | AC50 [1] | AC50 [2] |
| --- | --- | --- |
| Cc1ccc(-n2c(C)cc(/C=N/NC(=O)c3ccncc3)c2C)cc1C | 11.2 µM [rising, partial curve, poor fit] | 12.6 µM [rising, partial curve, poor fit] |
| C=CCN(CC=C)C(=S)NC(=O)c1ccc(OC)cc1 | 0.0251 µM [rising, full curve, poor fit] |  |
| Cc1cc2ncn(/N=C/c3ccc([N+](=O)[O-])s3)c2cc1C | 35.5 µM [falling, single point] | 20 µM [falling, single point] |
| O=c1[nH]c(=O)n(C2CCCO2)cc1Br (stereo not given) | 11.2 µM [falling, partial curve] |  |
| O=c1[nH]c(CN2CCN(S(=O)(=O)c3cccs3)CC2)nc2c(Br)cc(Br)cc12 | 35.5 µM [falling, single point] |  |
| Cc1ccc(-n2c(C)cc(/C([O-])=C(/C(=S)Nc3ccc(F)c(Cl)c3)[n+]3ccccc3)c2C)cc1 |  | 15.8 µM [rising, single point] |
| Cc1cccc2cc(C3CC(c4ccco4)=NN3C(=O)CCC(=O)O)c(Cl)nc12 (stereo not given) | 22.4 µM [falling, single point] | 35.5 µM [falling, single point] |
| Nc1nc(SCC(=O)Nc2ccc([N+](=O)[O-])cc2Br)n[nH]1 |  | 17.8 µM [rising, single point] |
| CNC(=O)c1sc(N2N=C3/C(=C/c4ccccc4)CCCC3C2c2ccccc2)nc1C (stereo not given) | 8.91 µM [falling, partial curve] | 20 µM [falling, partial curve, poor fit] |
| Cc1cccc(-c2nc3scc(CCNC(=O)c4ccccc4Cl)n3n2)c1 | 14.1 µM [falling, single point] |  |
| COc1ccc(NC(=S)Nc2cccc(S(=O)(=O)N3CCCCC3)c2)cc1 | 11.2 µM [rising, single point] | 35.5 µM [rising, single point] |
| COc1ccc(Cl)cc1N1CC(C(=O)Nc2nccs2)CC1=O (stereo not given) | 10 µM [falling, partial curve, poor fit] |  |
| CC(=O)/C(=N\Nc1ccc(Cl)cc1Cl)Sc1cccc2cccnc12 |  | 35.5 µM [rising, single point] |
| CCN(CC)C(=O)CSc1nc2ccccc2c(=O)n1CC1CCCCC1 |  | 35.5 µM [rising, single point] |
| O=C(CSc1ccccc1)Nc1ccc(S(=O)(=O)Nc2ncccn2)cc1 | 0.0631 µM [falling, full curve, poor fit] |  |
| O=S(=O)(c1ccc(Cl)cc1)N1CCN(C(=S)Nc2ccc(F)c(Cl)c2)CC1 |  | 10 µM [rising, partial curve] |
| COc1ccnc(-n2cccc2C=O)c1C#N | 3.98 µM [rising, single point] |  |
| O=C(COc1ccc(F)cc1)Nc1ccc2nc(SCc3ccccc3)sc2c1 | 12.6 µM [falling, single point] | 25.1 µM [falling, single point] |
| COc1ccc(Cc2nnc(N/N=C/c3ccc(O)cc3O)[nH]c2=O)cc1OC |  | 35.5 µM [rising, partial curve, poor fit] |

16 structures from above, arranged by SMILES length, low to high:

| SMILES | AC50 [1] | AC50 [2] |
| --- | --- | --- |
| COc1ccnc(-n2cccc2C=O)c1C#N | 3.98 µM [rising, single point] |  |
| NCCCC(O)(P(=O)(O)O)P(=O)(O)O | 35.5 µM [falling, single point] | 3.55 µM [rising, full curve, poor fit] |
| C=CCN(CC=C)C(=S)NC(=O)c1ccc(OC)cc1 | 0.0251 µM [rising, full curve, poor fit] |  |
| O=C(CSc1nnc(SCc2ccc(Cl)cc2)s1)N1CCOCC1 |  | 3.55 µM [falling, single point] |
| CC(C)C(=O)N=C1SC2CS(=O)(=O)CC2N1Cc1ccccc1 (stereo not given) | 35.5 µM [rising, single point] |  |
| CC(=O)/C(=N\Nc1ccc(Cl)cc1Cl)Sc1cccc2cccnc12 |  | 35.5 µM [rising, single point] |
| O=C(COc1ccc(F)cc1)Nc1ccc2nc(SCc3ccccc3)sc2c1 | 12.6 µM [falling, single point] | 25.1 µM [falling, single point] |
| Cc1nc(-c2cccc(NS(=O)(=O)c3ccc4ccccc4c3)c2)cs1 | 35.5 µM [rising, single point] | 31.6 µM [rising, single point] |
| COc1ccc(NC(=S)Nc2cccc(S(=O)(=O)N3CCCCC3)c2)cc1 | 11.2 µM [rising, single point] | 35.5 µM [rising, single point] |
| O=S(=O)(NCc1ccc(F)cc1)c1cccc(S(=O)(=O)N2CCOCC2)c1 |  | 1.41 µM [falling, full curve, poor fit] |
| COc1ccc(-n2c(SCc3ccccc3F)nc3c([nH]c4ccccc43)c2=O)cc1 | 22.4 µM [falling, partial curve, poor fit] | 35.5 µM [falling, single point] |
| COc1ccc(CCNC(=O)CS(=O)Cc2nc(-c3ccc(C)cc3)oc2C)c(OC)c1 (stereo not given) | 0.00447 µM [rising, full curve, poor fit] |  |
| CCn1c(CN2CCOCC2)nc2cc(NC(=O)c3cc(OC)c(OC)c(OC)c3)ccc21 | 0.1 µM [falling, full curve] | 0.00316 µM [falling, full curve, poor fit] |
| CCC(c1nnnn1Cc1ccco1)N(CCc1ccccc1)Cc1cc2ccc(OC)cc2[nH]c1=O (stereo not given) | 14.1 µM [rising, single point] | 14.1 µM [rising, single point] |
| CCOc1ccc(NC(=O)c2ccc(F)c(S(=O)(=O)NCc3ccc4c(c3)OCO4)c2)cc1 | 22.4 µM [falling, partial curve, poor fit] |  |
| Cc1ccc(-n2c(C)cc(/C([O-])=C(/C(=S)Nc3ccc(F)c(Cl)c3)[n+]3ccccc3)c2C)cc1 |  | 15.8 µM [rising, single point] |

(next part)

| SMILES | AC50 [1] | AC50 [2] |
| --- | --- | --- |
| O=c1c2ccccc2c(-c2ccccc2)nn1Cc1ccc(Cl)cc1 |  | 11.2 µM [falling, partial curve] |
| CCN(CC)C(=O)CSc1ncnc2c(-c3ccc(OC)cc3)nsc12 | 0.0316 µM [falling, full curve, poor fit] |  |
| N#CCSc1nnc(C2CCCCC2)n1Cc1ccccc1 | 22.4 µM [rising, single point] |  |
| O=C1C=CC(=O)N1c1ccc(N2CCCCC2)cc1 | 8.91 µM [falling, partial curve] | 7.08 µM [falling, partial curve, poor fit] |
| CCC(C)NC(=O)Cn1cc(S(=O)(=O)N2CCN(c3ccccc3F)CC2)c2ccccc2c1=O (stereo not given) | 14.1 µM [falling, single point] |  |
| COC(=O)c1cc(OC)c(OC)cc1NCC(=O)Nc1ccc(C)cc1 |  | 11.2 µM [rising, partial curve, poor fit] |
| O=[N+]1C2=C(CCCC2)N([O-])C12CCCC2 |  | 0.0158 µM [falling, full curve, poor fit] |
| CCOC(=O)N1CCN(C(=S)Nc2ccc(C)c(C)c2)CC1 |  | 14.1 µM [rising, single point] |
| Cc1cc(NC(=O)C2CCCCC2)n(-c2nc3ccccc3[nH]2)n1 |  | 35.5 µM [rising, single point] |
| Cc1ccc(Nc2nc(N/N=C/c3c[nH]c4ccccc34)nc(N3CCOCC3)n2)cc1 |  | 2.82 µM [rising, partial curve] |
| O=C(N/N=C/c1ccc[nH]1)c1ccccc1OCc1ccccc1Cl |  | 15.8 µM [rising, partial curve, poor fit] |
| CN(Cc1ccco1)c1ncnc2ccc(-c3ccc4c(c3)OCO4)cc12 | 4.47 µM [rising, partial curve] | 35.5 µM [falling, single point] |
| Cc1cccc(CNc2ncncc2-c2ccccc2C(F)(F)F)c1 |  | 20 µM [rising, single point] |
| CCCCNC(=O)c1c[nH]c2ccc(S(=O)(=O)Nc3ccc(OCC)cc3)cc2c1=O | 35.5 µM [falling, partial curve, poor fit] | 20 µM [falling, partial curve, poor fit] |
| CCOC(=O)/C=C/C(=O)OCC(=O)NC(c1ccccc1)c1ccccc1 | 35.5 µM [falling, single point] |  |
| O=C(Nc1cccc2c1CCCC2)c1ccc(Cl)c([N+](=O)[O-])c1 |  | 5.01 µM [rising, full curve, poor fit] |
| Cc1noc(C)c1S(=O)(=O)N1CCCC(C(=O)NCCC2=CCCCC2)C1 (stereo not given) | 12.6 µM [rising, single point] |  |
| O=C(CSc1nnc(-c2ccncc2)n1Cc1ccco1)Nc1nc(-c2ccccc2)cs1 |  | 31.6 µM [rising, single point] |
